Three molecules from PMC12442307 can be followed below.

No constants are given. Whether binding was seen depends on the method and setting. In cells and extracts the contact can be indirect. A yes stands for co-enrichment or nearness to the bait. Other partners may have been found. Sequences can lack the tags named with a protein.

B1: C14orf166 (protein, UniProt Q9Y224 1-244)
chain: MFRRKLTALDYHNPAGFNCKDETEFRNFIVWLEDQKIRHYKIEDRGNLRNIHSSDWPKFFEKYLRDVNCPFKIQDRQEAIDWLLGLAVRLEYGDNAEKYKDLVPDNSKTADNATKNAEPLINLDVNNPDFKAGVMALANLLQIQRHDDYLVMLKAIRILVQERLTQDAVAKANQTKEGLPVALDKHILGFDTGDAVLNEAAQILRLLHIEELRELQTKINEAIVAVQAIIADPKTDHRLGKVGR
B2: SUGP1 (protein, UniProt Q8IWZ8 1-645)
chain: MSLKMDNRDVAGKANRWFGVAPPKSGKMNMNILHQEELIAQKKREIEAKMEQKAKQNQVASPQPPHPGEITNAHNSSCISNKFANDGSFLQQFLKLQKAQTSTDAPTSAPSAPPSTPTPSAGKRSLLISRRTGLGLASLPGPVKSYSHAKQLPVAHRPSVFQSPDEDEEEDYEQWLEIKVSPPEGAETRKVIEKLARFVAEGGPELEKVAMEDYKDNPAFAFLHDKNSREFLYYRKKVAEIRKEAQKSQAASQKVSPPEDEEVKNLAEKLARFIADGGPEVETIALQNNRENQAFSFLYEPNSQGYKYYRQKLEEFRKAKASSTGSFTAPDPGLKRKSPPEALSGSLPPATTCPASSTPAPTIIPAPAAPGKPASAATVKRKRKSRWGPEEDKVELPPAELVQRDVDASPSPLSVQDLKGLGYEKGKPVGLVGVTELSDAQKKQLKEQQEMQQMYDMIMQHKRAMQDMQLLWEKAVQQHQHGYDSDEEVDSELGTWEHQLRRMEMDKTREWAEQLTKMGRGKHFIGDFLPPDELEKFMETFKALKEGREPDYSEYKEFKLTVENIGYQMLMKMGWKEGEGLGSEGQGIKNPVNKGTTTVDGAGFGIDRPAELSKEDDEYEAFRKRMMLAYRFRPNPLNNPRRPYY
B3: RTCB (protein, UniProt Q9Y3I0 1-505)
chain: MSRSYNDELQFLEKINKNCWRIKKGFVPNMQVEGVFYVNDALEKLMFEELRNACRGGGVGGFLPAMKQIGNVAALPGIVHRSIGLPDVHSGYGFAIGNMAAFDMNDPEAVVSPGGVGFDINCGVRLLRTNLDESDVQPVKEQLAQAMFDHIPVGVGSKGVIPMNAKDLEEALEMGVDWSLREGYAWAEDKEHCEEYGRMLQADPNKVSARAKKRGLPQLGTLGAGNHYAEIQVVDEIFNEYAAKKMGIDHKGQVCVMIHSGSRGLGHQVATDALVAMEKAMKRDKIIVNDRQLACARIASPEGQDYLKGMAAAGNYAWVNRSSMTFLTRQAFAKVFNTTPDDLDLHVIYDVSHNIAKVEQHVVDGKERTLLVHRKGSTRAFPPHHPLIAVDYQLTGQPVLIGGTMGTCSYVLTGTEQGMTETFGTTCHGAGRALSRAKSRRNLDFQDVLDKLADMGIAIRVASPKLVMEEAPESYKNVTDVVNTCHDAGISKKAIKLRPIAVIKG

The target of this assay is T1, GFP-CTPS1 (N-terminal GFP-tagged CTP synthetase 1) (human) (UniProt P17812).
T1 sequence: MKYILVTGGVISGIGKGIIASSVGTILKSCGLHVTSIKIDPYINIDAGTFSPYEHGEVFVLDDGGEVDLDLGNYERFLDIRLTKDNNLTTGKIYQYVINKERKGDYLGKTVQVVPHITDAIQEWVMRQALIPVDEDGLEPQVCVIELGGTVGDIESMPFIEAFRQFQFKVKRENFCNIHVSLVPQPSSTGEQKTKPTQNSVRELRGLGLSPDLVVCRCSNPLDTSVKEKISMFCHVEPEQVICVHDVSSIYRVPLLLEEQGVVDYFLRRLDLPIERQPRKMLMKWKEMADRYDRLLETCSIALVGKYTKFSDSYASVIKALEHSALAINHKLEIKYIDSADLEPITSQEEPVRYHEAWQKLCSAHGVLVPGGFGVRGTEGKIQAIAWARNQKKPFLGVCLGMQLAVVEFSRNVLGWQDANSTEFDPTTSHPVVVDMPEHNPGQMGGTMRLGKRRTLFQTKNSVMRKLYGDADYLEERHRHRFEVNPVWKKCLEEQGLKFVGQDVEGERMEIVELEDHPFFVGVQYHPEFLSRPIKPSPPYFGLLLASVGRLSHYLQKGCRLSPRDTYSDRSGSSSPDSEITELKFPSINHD
Kind of assay: affinity purification with mass spectrometry; GFP-Trap agarose beads, 90 min, on lysates of CTPS1-KO HEK cells stably expressing GFP-CTPS1, compared with GFP alone; lysis in 20 mM Tris-HCl pH 7.5, 1% NP-40, 300 mM NaCl adjusted to 150 mM; quantitative label-free LC-MS/MS, four replicates.
With B1, the binding entry is “binds”.
In the case of B2 it was “binds”.
Next, B3: “binds”.
